The source of these data is the supplement of paper PMC9433722.

For assay [1], the system named is Saos-2. Nature of the assay: cell viability (CCK-8) relative to DMSO control (% of control); higher = less cytotoxic. Particulars: 10 µM; 48 h.
Assay [2] concerns U2OS. Described as above. Particulars: 10 µM; 48 h.

Structures can show the parent of a compound that is named as a salt. The list shows a part of the results. Most values come without repeats; read them as rough.

Take `CC(=O)O[C@H]1C[C@@H]2CC[C@@H]3[C@H](CC[C@@]4(C)[C@H]3C[C@H]([N+]3(C)CCCCC3)[C@@H]4OC(C)=O)[C@@]2(C)C[C@@H]1[N+]1(C)CCCCC1` [Pancuronium . dibromide]: the cell viability in assay [1] was found to be 62.2; in assay [2], 105.

As for `CCN(C)C(=O)Oc1cccc([C@H](C)N(C)C)c1` [Rivastigmine Tartrate], the cell viability in assay [1] was 65.7; in assay [2], 87.7.

Regarding `C[N+]1(C)CCCC(OC(=O)C(O)(c2ccccc2)c2ccccc2)C1` (stereo not given) [Mepenzolate Bromide], the cell viability came to 107 in assay [1] and 101 in assay [2].

As to `C#CCN(C)[C@H](C)Cc1ccccc1` [Selegiline·HCl], the cell viability in assay [1] was determined as 110; in assay [2], 92.9.

Take `COc1cc2c(cc1OC)C1CC(=O)C(CC(C)C)CN1CC2` (stereo not given) [Tetrabenazine]: the cell viability in assay [1] came to 110; in assay [2] it was 98.6.

Take `CC(C)C[C@H]1C(=O)N2CCC[C@H]2[C@]2(O)O[C@](NC(=O)[C@@H]3C=C4c5cccc6[nH]c(Br)c(c56)C[C@H]4N(C)C3)(C(C)C)C(=O)N12` [Bromocriptine Mesylate]: the cell viability worked out at 64.2 in assay [1] and 109 in assay [2].

On to `Cn1c(CCCC(=O)O)nc2cc(N(CCCl)CCCl)ccc21` [Bendamustine hydrochloride], for which the cell viability in assay [1] came out at 109; in assay [2], 73.4.

As to `O=C(O)CCCc1ccc(N(CCCl)CCCl)cc1` [Chlorambucil], the cell viability is 63.6 in assay [1] and 94.5 in assay [2].

Turning to `COc1cc2c(c(OC)c1OC)-c1ccc(OC)c(=O)cc1[C@@H](NC(C)=O)CC2` [Colchicine], the cell viability in assay [1] is 39.4; in assay [2], 52.

For the compound `CCOC(=O)c1cncn1[C@H](C)c1ccccc1` [Etomidate], the cell viability in assay [1] was determined as 105; in assay [2], 93.

With `CN1[C@@H]2CC[C@H]1C[C@@H](OC(=O)C(CO)c1ccccc1)C2` (stereo not given in full) [Atropine Sulfate Monohydrate], the results for the cell viability in assay [1] and in assay [2] were 60.3 and 109, respectively.

On to `O=[N+]([O-])O[C@H]1CO[C@H]2[C@@H]1OC[C@H]2O[N+](=O)[O-]` [Isosorbide . Dinitrate], for which the results for the cell viability in assay [1] and in assay [2] were 106 and 95.1, respectively.

Regarding `Cc1cccc([C@H](C)c2c[nH]cn2)c1C` [Dexmedetomidine·HCl], the cell viability in assay [1] is 101; in assay [2] it was 108.

Regarding `C=CCN1CC[C@]23c4c5ccc(O)c4O[C@H]2C(=O)CC[C@@]3(O)[C@H]1C5` [Naloxone . hydrochloride], the cell viability in assay [1] was found to be 67.1; in assay [2], 106.

In the case of `COc1cccc(C2(O)CCCCC2CN(C)C)c1` (stereo not given) [Tramadol·HCl], the cell viability amounted to 66 in assay [1] and 101 in assay [2].

With `C=C1C[C@@H]2[C@H](CC[C@]3(C)C(=O)CC[C@@H]23)[C@@]2(C)C=CC(=O)C=C12` [Exemestane], the cell viability was determined as 54.7 in assay [1] and 138 in assay [2].

`C=CCN1C[C@H](C(=O)N(CCCN(C)C)C(=O)NCC)C[C@@H]2c3cccc4[nH]cc(c34)C[C@H]21` [Cabergoline]: the cell viability in assay [1] was determined as 57.4; in assay [2] it was 122.

`CN1[C@@H]2C[C@@H](OC(=O)[C@H](CO)c3ccccc3)C[C@H]1[C@@H]1O[C@@H]12` [Scopolamine hydrobromide]: the cell viability is 68.4 in assay [1] and 113 in assay [2].

Turning to `COc1ccc(C(CN(C)C)C2(O)CCCCC2)cc1` (stereo not given) [Venlafaxine·HCl], the cell viability in assay [1] came to 65.1; in assay [2], 93.7.

With `CC1C=CC=CCCC=CC=CC=CC=CC(OC2OC(C)C(O)C(N)C2O)CC2OC(O)(CC(O)C(O)CCC(O)CC(O)CC(O)CC(=O)OC(C)C(C)C1O)CC(O)C2C(=O)O` (stereo not given) [Nystatin], the cell viability in assay [1] worked out at 71.6; in assay [2] it was 93.2.

On to `O=c1[nH]c2ccccc2n1C1CCN(CCCC(c2ccc(F)cc2)c2ccc(F)cc2)CC1` [Pimozide], for which the figures for the cell viability in assay [1] and in assay [2] were 55.9 and 112, respectively.

With `Cl[C@H]1[C@H](Cl)[C@@H](Cl)[C@@H](Cl)[C@H](Cl)[C@H]1Cl` [Lindane], the results for the cell viability in assay [1] and in assay [2] were 108 and 109, respectively.

In the case of `CCOC(=O)CC(SP(=S)(OC)OC)C(=O)OCC` (stereo not given) [Malathion], the cell viability came to 110 in assay [1] and 94.9 in assay [2].

Consider `O=C(O[C@H]1C[C@H]2CC[C@@H](C1)[N+]21CCCC1)C(O)(c1ccccc1)c1ccccc1` [Trospium Chloride], for which the values for the cell viability in assay [1] and in assay [2] were 137 and 76.2, respectively.

Regarding `CC[C@@H](CO)NC(=O)[C@@H]1C=C2c3cccc4[nH]cc(c34)C[C@H]2N(C)C1` [Methylergonovine Maleate], the cell viability in assay [1] is 97.6; in assay [2], 101.
